{"source": "patent US4076702A", "about": "“Dipeptide derivatives and their production” (Shionogi & Co., Ltd., priority 1974, dated 1978)", "test_system": "DS male mice", "settings": "oral single dose, observed 72 hours, Bliss method", "data": [{"smiles": "CN1C(=O)CN=C(c2ccccc2)c2cc(Cl)ccc21", "note": "[Compound No. 5, Diazepam, reference compound]", "values": [{"measurement": "Acute toxicity LD50", "value": 1459, "unit": "mg/kg"}]}]}
